No constants are given. Whether binding was seen depends on the method and setting. Binding seen in cells or lysates may run through a third protein. A yes stands for co-enrichment or nearness to the bait. Other partners may have been found.

Amino acid sequences for entries named in this document (tags omitted). A change or cut given only in a name is not applied to a line headed by its entry.
UniProt Q7Z494: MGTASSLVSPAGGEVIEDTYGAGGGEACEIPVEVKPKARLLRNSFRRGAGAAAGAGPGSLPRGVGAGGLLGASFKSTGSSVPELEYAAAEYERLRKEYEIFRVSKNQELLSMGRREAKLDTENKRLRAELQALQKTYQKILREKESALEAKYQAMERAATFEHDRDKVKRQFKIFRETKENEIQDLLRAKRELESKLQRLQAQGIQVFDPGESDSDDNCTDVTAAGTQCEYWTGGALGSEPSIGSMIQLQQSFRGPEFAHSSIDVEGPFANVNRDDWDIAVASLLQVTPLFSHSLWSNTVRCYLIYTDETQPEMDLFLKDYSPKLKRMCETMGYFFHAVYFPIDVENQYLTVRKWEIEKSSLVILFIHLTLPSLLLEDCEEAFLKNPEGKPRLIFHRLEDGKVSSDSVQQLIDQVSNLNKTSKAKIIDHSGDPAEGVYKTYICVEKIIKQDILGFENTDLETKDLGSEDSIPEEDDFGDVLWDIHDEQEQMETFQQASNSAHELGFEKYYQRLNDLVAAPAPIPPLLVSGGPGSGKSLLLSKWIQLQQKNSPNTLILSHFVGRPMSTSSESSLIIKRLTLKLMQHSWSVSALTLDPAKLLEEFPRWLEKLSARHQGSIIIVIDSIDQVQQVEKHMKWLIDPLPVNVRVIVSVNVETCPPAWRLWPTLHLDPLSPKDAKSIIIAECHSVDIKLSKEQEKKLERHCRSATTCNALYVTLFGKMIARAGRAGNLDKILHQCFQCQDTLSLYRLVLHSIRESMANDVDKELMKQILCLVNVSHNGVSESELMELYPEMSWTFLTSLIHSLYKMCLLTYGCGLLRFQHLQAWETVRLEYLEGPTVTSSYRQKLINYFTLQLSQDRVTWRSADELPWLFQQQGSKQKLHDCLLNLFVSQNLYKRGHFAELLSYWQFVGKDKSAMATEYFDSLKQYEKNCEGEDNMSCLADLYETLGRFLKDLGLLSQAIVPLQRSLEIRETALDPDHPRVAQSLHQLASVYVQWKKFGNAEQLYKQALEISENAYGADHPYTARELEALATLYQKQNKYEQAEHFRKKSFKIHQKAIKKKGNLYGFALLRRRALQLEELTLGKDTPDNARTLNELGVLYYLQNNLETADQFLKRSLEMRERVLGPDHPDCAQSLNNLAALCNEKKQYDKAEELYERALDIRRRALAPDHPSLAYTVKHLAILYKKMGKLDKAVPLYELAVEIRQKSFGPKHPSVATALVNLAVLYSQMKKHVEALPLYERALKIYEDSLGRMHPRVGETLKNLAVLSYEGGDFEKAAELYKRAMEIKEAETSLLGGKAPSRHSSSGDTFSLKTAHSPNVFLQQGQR

In publication PMC9908615 one finds binding data, which are given here for eight molecules.

B1: NF2 (protein, UniProt P46662 1-596)
chain: MAGAIASRMSFSSLKRKQPKTFTVRIVTMDAEMEFNCEMKWKGKDLFDLVCRTLGLRETWFFGLQYTIKDTVAWLKMDKKVLDHDVSKEEPVTFHFLAKFYPENAEEELVQEITQHLFFLQVKKQILDEKVYCPPEASVLLASYAVQAKYGDYDPSVHKRGFLAQEELLPKRVINLYQMTPEMWEERITAWYAEHRGRARDEAEMEYLKIAQDLEMYGVNYFTIRNKKGTELLLGVDALGLHIYDPENRLTPKISFPWNEIRNISYSDKEFTIKPLDKKIDVFKFNSSKLRVNKLILQLCIGNHDLFMRRRKADSLEVQQMKAQAREEKARKQMERQRLAREKQMREEAERTRDELERRLLQMKEEATMANEALMRSEETADLLAEKAQITEEEAKLLAQKAAEAEQEMQRIKATAIRTEEEKRLMEQKVLEAEVLALKMAEESERRAKEADQLKQDLQEAREAERRAKQKLLEIATKPTYPPMNPIPPPLPPDIPSFDIIADSLSFDFKDTDMKRLSMEIEKEKVEYMEKSKHLQEQLNELKTEIEALKLKERETALDVLHSESSDRGGPSSKHNTIKKLTLQSAKSRVAFFEEL
B2: TAB2 (protein, UniProt Q99K90 1-693)
chain: MAQGSHQIDFQVLHDLRQKFPEVPEVVVSRCMLQNNNNLDACCAVLSQESTRYLYGEGDLNFSDESGISGLRNHMTSLNLDLQSQNVYHHGREGSRVNGSRTLTHSVSDGQLHGGQSNNELFQQEPQTAPAQVPQGFNVFGMPSTSGASNSTPHLGFHLGSKGTSNLSQQTPRFNPIMVTLAPNIQTGRSTPTSLHIHGVPPPVLNSPQGNSIYIRPYITTPSGTARQTQQHSGWVSQFNPMNPQQAYQPSQPGPWTTYPASNPLPHTSTQQPNQQGHQTSHVYMPISSPTTPQPPTIHSSGSSQSSAHSQYNIQNISTGPRKNQIEIKLEPPQRNSSSKLRSSGPRTASTSSLVNSQTLNRNQPTVYIAASPPNTDEMISRSQPKVYISANATAGDEQGMRNQPTLFISTNSGPSAASRNMSGQVSMGPAFIHHHPPKSRVLGGNSATSPRVVVTQPNTKYTFKITVSPNKPPAVSPGVVSPTFELTNLLNHPDHYVETENIQHLTDPALAHVDRISEARKLSMGSDDAAYTQALLVHQKARMERLQRELEMQKKKLDKLKSEVNEMENNLTRRRLKRSNSISQIPSLEEMQQLRSCNRQLQIDIDCLTKEIDLFQARGPHFNPSAIHNFYDNIGFVGPVPPKPKDQRSTIKAPKTQDAEDEEGAQWNCTACTFLNHPALIRCEQCEMPRHF
B3: RPS6KC1 (protein, UniProt Q8BLK9 1-1056)
chain: MTSPWGHSADLARFYTVTEPQRHPRGYTVYKVTARVVSRRNPEDVQEIIVWRRYSDFKKLHRELWQIHRNAFRHSELFPPFAKGTVFGRFDKTVIEERRQCAEDLLQFSANIPALYNSRQLQDFFKGGVISDGSELIGPAEAYPDSPANAFPECGTEGFSSDSDLLSLTVDADSLAEVDDGMASRQGSPSRTFGLSLSTDSSAVGAVASDSEPSRVEDRESRSLFPSSLKPRLGRRDYLEKAGELIKLALKKEEEDDYEAASDFYRKGVDLLLEGVQGESSPTRREAVKRRTAEYLMRAESICSLRAAPQLHTGPQPPGSLSSRPPWSLRSPAEELKAFRVLGVIDKVLLVMDTRTEQTFILKGLRKSSECSRNRKTIIPRCVPNMVCLHTYIISEESVFLVLQRAEGGKLWSYISKFLNRSSQESLDIKEGRPSMPPRVCLQQPSASPQGGSSFESRGSDTGSMLKALPLKTSLTPSSQDDSNQEDDGQPSSPKWLDSGSSSEDECTAGYLTLCNEYGQEKMDLVSLSEESVMQPEGDKADTQAVSSPASLATGSVSPSTHLRVFSGGEDLEAVSSPPTSESLSRSKNSPMEFFRIDSKDSTSELLGLDFGEKLHSLKPEPLKALFTLEDGDSPSQSLDPGESKRESEAQDSVSRGSDDSVPVISFKEAAAEAISGAEEGRPDLLVNLPGELQPTKEASAMDPKFSQASAGRLDSKLLEAPDVLCLRLSSEQCHGLGPEGPEELSDPTEFCPGGVIPEHDAQADPGVLFEAAVDHRSSPDQFLFSSLRSESDRLGQVEVVVTAQALQESLFHISSPCSGANKEHSAYADTATSEEVLLFTEPTKEEANSLFQRGSEAQERGVGAGEADKEIHQIFEDLDKRLAASSRFFIPEGCIQRWAAEMVVALDALHREGIVCRDLNPNNILLNDGGHIQLTYFSRWSEVEDSCDSDAVARMYCAPEVGAVTEETEACDWWSLGAVLFELLTGKTLVECHPAGINTHTTLNMPGCVSEEARSLIQQLLQFNPMERLGAGVAGVEDIKSHPFFTPVDWAELTR
B4: CEP85 (protein, UniProt Q8BMK0 1-761)
chain: MAMQEKYPNDRSHATSPGSNVIQKGSSLGTEWQTPVISETFRSRFSRCSSIADSGDTAIGTSCSDIAEDFCSSSGSPSFQPIKSHITIPTAHVMPSTLGASPAKPNSAPSGPSSAKLPLSGLTEGVGMTRNGDFGAVKRSPGLARDFMYLPSAAGENGSQQSWFPAVGHEREGEMRKFDVPSMESTLNQPAMLETLYSDPHYRAHFPNPRPDTNKDVYKVLPESKKAPGSGAVFERNGPHASSSGVLPLGLQPAPGLSKSLSSQVWQPSPDPWHPGEQSCELSTCRQQLELIRLQMEQMQLQNGAMCHHPAAFAPLLPTLEPAQWLSILNSNEHLLKEKELLIDKQRKHISQLEQKVRESELQVHSALLGRPAPFGDVCLLRLQELQRENTFLRAQFAQKTEALSKEKMELEKKLSASEVEIQLIRESLKVTLQKHSEEGKKQEERVKGRDKHINNLKKKCQKESEQNREKQQRIETLERYLADLPTLEDHQKQTEQLKDAELKNTELQERVAELETLLEDTQATCREKEVQLESLRQREADLSSARHSFQDKQSVEEANGENLRVDMESQQKECDSLRKMVERQQLKMEQLHSQVQSQKQELAQEEGINQALREEAQRRETALQQMRTAVKELSVQNQDLIEKNLTLQEHLRQAQPGSSSSPDSAQLACELHQELASCLQDLQAVCSIVTQRAQGHNPNLSLLLGIHSTQHPGTQLDLQKPDVIRRKLEEVQQLRHDIEDLRTSLSDRYAQDMGENCATQ
B5: CCDC14 (protein, UniProt Q8K2J4 1-934)
chain: MSPGGPRPSSRKRKLRGRDKGGPDISAVNSFFLKYSFPYAWALLRLREMVRSGSRPGQVISSGRQPGAKLPNGKKGTHVRKIAHFNVDSACPVQSDSESQTDTLQGLDGCASLLRDILKNEDSGSEMVYSENRCNSKPLEGRKNRSKKKGPEKHVPSVVRKEILSSENRKWISNEASTGSDTAQRWSLQDHYRMYSPIIYQALCEHVQTQMSLMNSLALKNGPNGIHAVCHTMSNSGSQATPHSGFGCSPSASVWPPQQPSCPLMVHSEVQTDADNQFESQSQATSVKYGDVPRDPFSVHPGVACGLPHADSPAVAKSRQLDLTSCILPQQRAPKEAELLKCFQTHTSLFPAHGKDALSDSQAYQSPSQLQPAFLATNEEKCAKEQFEEATNEGKHLSTHVQDAKIAKNVQQAENVSQTAEKIRLAKCLLGELKALMEEDSEVQRLVTEVEACVSGLSAVSGHPNVEVEIALALQPLRSENAQLRRQLRILNQRLREQEKTEKGPGNLELFSLQSLNMSLQNQLQESLKSQELLQSKNEELLKVIENQKEENKKFTTLFKDKEQTLLHNKQQFDIEMTRVKMELEEALANEKNLRFKLETAEKESQILGITLRQRDAEVARLRELTRTLQSSMAKLLSDLSMDTARCRMGNSLTKSLLNVYDQQLQQDPAPAQTSIMSYLNKLETNHSFIHSKLLNNEAAIEPDRLCESVLPPQRPPHSDAGTADGGSASGTVSAASVEDSDMDCETLTVIEDGCNVDSTVYIPFARNTSKKHSPLCKRLSPQPKLSVAAAQLVSGSAQTSKGESKPRAPAVCSSRNEAEDAPGDLSSTYDTEDVQLLRKIKEAIGKIPAAAEHAKEQATHHGPSAHPSPGVPVKGSIVPDSSFLNSDLMSDWSISSFSTFTSHDEQDFRNGLAALDANIARLQKSLKTGLLEK
B6: HAUS8 (protein, UniProt Q99L00 1-373)
chain: MADSSERDAGKSAAAGACAVPKTKGRRVQGRRVVESRYLQYDKKAKKVSGAAKEEKPPEGRKASTVPRSREESQVMGTGNLQSTMLEGHGMNPPDLDLSAIDDKILSRKASWPDREMTDKAKSTSFISCDKKRILRKKRRDLQETMDMMESQTLLMTLLSVKMENNLALLEERAEKDLAAMCHEKERLQRQALELRRQLLLRQKHQELAATLDAQIEVLSPLQPVLERFKEEYMTLGRALDTTRHELPMQAVHMEGSGQELLDDLEPALRITLQLLGDLSICSPYATAQVQGASAQEPGASTQLSCLLKELKGLVTEKDLELRRLVSQVVELSSQASKEAALMNQEVWEEAEGALTSSQWYFSPDACRDDSPS
B7: TAB3 (protein, UniProt Q571K4 1-716)
chain: MAQNSPQLDIQVLHDLRQRFPEIPEGVVSQCMLQNNNNLEACCRALSQESSKYLYMEYHSPEDNRMNRNRLLHINLGIHSPSSYHPGDGAHLNGGRTLVHSSSDGHIDPQHTAGKQLICLVQEPHSAPAVVAATPNYNPFFMNEQNRSAATPPSQPPQQPSSMQTGMNPSAMQGPSPPPPPPSYMHIPRYSTNPITVTVSQNLPSGQTVPRALQILPQIPSNLYGSPGSIFIRQTSQSSSGRQTPQNAPWQSSPQGPVPHYSQRPLPVYPHQQNYQPSQYSPKQQQIPQSVYHSPPPSQCPSPFSSPQHQVQPPQLGHPSSHVFMPPSPSTTPPHLYQQGPPSYQKPGSHSVAYLPYTASSLPKGSMKKIEITVEPSQRPGTAITRSPSPISNQPSPRNQHSLYTATTPPSSSPSRGISSQPKPPFSVNPVYITYTQPTGPSCAPSPSPRVIPNPTTVFKITVGRATTENLLNLVDQEERSAAPEPIQPISVIPGSGGEKGNHKYQRSSSSGSDDYAYTQALLLHQRARMERLAKQLKLEKEELERLKAEVNSMEHDLMQRRLRRVSCTTAIPTPEEMTRLRSTNRQLQINVDCTLKEVDLLQSRGNFDPKAINNFYDHIEPGPVVPPKPSKKDSSDSCAIERKARRISVTSKAPVDIHDAQAAAADEHLSICKQSARTQPRDEDYEGAPWNCDSCTFLNHPALNRCEQCEMPRYT
B8: HAUS5 (protein, UniProt Q9D786 1-619)
chain: MELTQKERELSRWAAEEMEVPLAARPRESTLRRLCLSQGADIWAYIVQHVRSQRNIKKIQGNLLWHAYQDNPKIHRKLELEATVARLRAENQELDQSLELMDQESEAQDVAMTQTLQSLKDTQHRALLLQAQAGAVRRQQRGLQDPMQRLQNQLKHLQDMQRKAKVDVTFGPVVSAAPALEPEVLGDVRAACTLRTQFLQNLLTPRARGGSILSPCDDHVGTSYQQWLTSVETLLTNHPAGHVLAALEYLAAERESEIRSLCYGDGLKEEELSRPQAPESSNSSQVLPSTVHLIQEGWQAVGALVTQRSALLSERQVLTGRLQRLVEEVKRLLLGSSERKVLLLGLRHSGLLAELKALHAQSQELESAVGQRHLLLRELQAKRQRILQWRQLVEDRQEQIRLLIKGNSASKTRLSRGPEEVLALIDQKLVPTSEAVAPQSQELLRCLKEEAKHLPRVLLGPLLPYHVKGLKPLSRILPSIHQLHPTNPRASSLILLSHTLGLPVGKASELLLPRAASLQQDLLFLQDQLGLRRGNLCVKTSLPPGPSTQELLQMQVSQEKEQNENVGQTLKKLSNLLKQALEQIPELQGIVQDWWEQPSQAALPEEICQGLSLPQCQLR

In this experiment the target is NPHP3-BioID2-RAD23B (aa185-409) (human) (UniProt Q7Z494). In words: proximity labelling; NPHP3-BioID2-RAD23B (aa185-409) stably expressed in IMCD3 Flp-In cells, starvation medium 48 h, 10 uM biotin for the last 24 h; RIPA lysis, StrepTactin Superflow beads 3 h at 4°C, on-bead trypsin digestion, label-free MS; enrichment against the NPHP3-BioID2 control line; 6 replicates per cell line.
Regarding B1, the binding result is recorded as “binds”.

Consider B2, for which the binding entry is “binds”.

On to B3, for which the binding result is reported as “binds”.

In the case of B4, the binding entry is given as “binds”.

B5: the binding entry is “binds”.

With B6, the binding result is “binds”.

Regarding B7, the binding entry is on record as “binds”.

Turning to B8, the binding entry is given as “binds”.
